Results are given in words; binding and its absence hold for the method and conditions named. In cells and extracts the contact can be indirect. These calls come from enrichment with a bait or labelling near it, and not all partners need be listed. For some of these results: A no says only that the protein was not detected with the bait. Where a sequence is shown, tags or fusion partners need not be part of it.
T1: mycBirA*–Rab11a, P62491
T1 chain: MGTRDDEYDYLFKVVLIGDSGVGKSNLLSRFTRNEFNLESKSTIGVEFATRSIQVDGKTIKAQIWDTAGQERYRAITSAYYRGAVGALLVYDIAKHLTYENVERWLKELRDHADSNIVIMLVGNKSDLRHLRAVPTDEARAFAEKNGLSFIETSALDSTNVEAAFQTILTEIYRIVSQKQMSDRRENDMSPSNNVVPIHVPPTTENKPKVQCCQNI

T2: mycBirA*–Rab4a, P20338
T2 chain: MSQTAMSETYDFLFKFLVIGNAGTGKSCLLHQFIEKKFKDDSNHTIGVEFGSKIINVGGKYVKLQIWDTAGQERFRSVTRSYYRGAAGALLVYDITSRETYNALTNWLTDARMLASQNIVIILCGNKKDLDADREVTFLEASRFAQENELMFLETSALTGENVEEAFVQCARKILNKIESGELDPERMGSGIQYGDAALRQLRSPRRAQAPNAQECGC

T3: mycBirA*–Rab25, P57735
T3 chain: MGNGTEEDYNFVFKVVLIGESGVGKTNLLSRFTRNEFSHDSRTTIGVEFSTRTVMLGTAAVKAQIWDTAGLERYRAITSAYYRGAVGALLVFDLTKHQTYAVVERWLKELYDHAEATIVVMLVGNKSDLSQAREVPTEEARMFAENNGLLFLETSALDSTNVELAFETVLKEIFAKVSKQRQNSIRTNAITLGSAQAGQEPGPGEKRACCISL


Experiments:
Assay in all cases: proximity labelling; BioID: A2780 cells stably expressing mycBirA*-Rab baits (mycBirA* alone as control), 1 uM biotin for 16 h; lysis in 0.4% SDS, 500 mM NaCl buffer; streptavidin microspheres; LC-MS/MS with label-free quantification, four replicates; high-confidence list by SAINTexpress (BFDR<=0.05), longlist by >2-fold enrichment; biotin-modified peptides also scored
Details in all cases: remark: other sources report otherwise
[1] = target: T1, mycBirA*–Rab11a, P62491
[2] = target: T2, mycBirA*–Rab4a, P20338
[3] = target: T3, mycBirA*–Rab25, P57735

Binder | binding [1] | binding [2] | binding [3]
SNX6, Q9UNH7 1-406 (protein) MMEGLDDGPDFLSEEDRGLKAINVDLQSDAALQVDISDALSERDKVKFTVHTKSSLPNFKQNEFSVVRQHEEFIWLHDSFVENEDYAGYIIPPAPPRPDFDASREKLQKLGEGEGSMTKEEFTKMKQELEAEYLAIFKKTVAMHEVFLCRVAAHPILRRDLNFHVFLEYNQDLSVRGKNKKEKLEDFFKNMVKSADGVIVSGVKDVDDFFEHERTFLLEYHNRVKDASAKSDRMTRSHKSAADDYNRIGSSLYALGTQDSTDICKFFLKVSELFDKTRKIEARVSADEDLKLSDLLKYYLRESQAAKDLLYRRSRSLVDYENANKALDKARAKNKDVLQAETSQQLCCQKFEKISESAKQELIDFKTRRVAAFRKNLVELAELELKHAKGNLQLLQNCLAVLNGDT | binds | binds | –
SNX4, O95219 1-450 (protein) MEQAPPDPERQLQPAPLEPLGSPDAGLGAAVGKEAEGAGEESSGVDTMTHNNFWLKKIEISVSEAEKRTGRNAMNMQETYTAYLIETRSVEHTDGQSVLTDSLWRRYSEFELLRSYLLVYYPHIVVPPLPEKRAEFVWHKLSADNMDPDFVERRRIGLENFLLRIASHPILCRDKIFYLFLTQEGNWKETVNETGFQLKADSRLKALNATFRVKNPDKRFTDLKHYSDELQSVISHLLRVRARVADRLYGVYKVHGNYGRVFSEWSAIEKEMGDGLQSAGHHMDVYASSIDDILEDEEHYADQLKEYLFYAEALRAVCRKHELMQYDLEMAAQDLASKKQQCEELVTGTVRTFSLKGMTTKLFGQETPEQREARIKVLEEQINEGEQQLKSKNLEGREFVKNAWADIERFKEQKNRDLKEALISYAVMQISMCKKGIQVWTNAKECFSKM | binds | – | –
Rab11a (endogenous), P62491 1-216 (protein) MGTRDDEYDYLFKVVLIGDSGVGKSNLLSRFTRNEFNLESKSTIGVEFATRSIQVDGKTIKAQIWDTAGQERYRAITSAYYRGAVGALLVYDIAKHLTYENVERWLKELRDHADSNIVIMLVGNKSDLRHLRAVPTDEARAFAEKNGLSFIETSALDSTNVEAAFQTILTEIYRIVSQKQMSDRRENDMSPSNNVVPIHVPPTTENKPKVQCCQNI | – | – | no binding

Source: PMC10323252
